From PMC5698439 come the findings set out here.

Chains of the proteins cited; added tags and fusions are not shown.
UniProt P18760: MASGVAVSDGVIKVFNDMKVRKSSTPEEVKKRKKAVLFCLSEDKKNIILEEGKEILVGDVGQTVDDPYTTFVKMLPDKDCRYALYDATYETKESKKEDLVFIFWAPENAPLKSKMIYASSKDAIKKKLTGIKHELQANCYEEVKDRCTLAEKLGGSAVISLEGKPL
UniProt P49023: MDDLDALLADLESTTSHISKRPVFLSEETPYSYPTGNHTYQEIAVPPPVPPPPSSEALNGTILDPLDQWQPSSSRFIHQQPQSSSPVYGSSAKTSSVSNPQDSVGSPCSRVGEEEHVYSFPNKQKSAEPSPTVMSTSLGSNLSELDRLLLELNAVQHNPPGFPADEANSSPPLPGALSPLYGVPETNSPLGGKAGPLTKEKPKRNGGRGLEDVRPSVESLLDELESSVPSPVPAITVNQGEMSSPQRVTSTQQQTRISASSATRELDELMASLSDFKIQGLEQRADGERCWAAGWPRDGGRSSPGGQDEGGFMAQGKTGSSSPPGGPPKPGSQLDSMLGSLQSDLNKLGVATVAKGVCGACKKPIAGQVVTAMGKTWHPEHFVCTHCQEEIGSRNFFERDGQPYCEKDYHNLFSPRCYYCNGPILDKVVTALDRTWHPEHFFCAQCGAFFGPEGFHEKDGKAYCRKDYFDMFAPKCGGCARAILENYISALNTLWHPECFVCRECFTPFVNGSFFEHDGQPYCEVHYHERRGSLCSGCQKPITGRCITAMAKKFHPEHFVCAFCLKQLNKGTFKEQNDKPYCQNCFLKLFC

This experiment has as its target T1, V5-tagged CORO2B (mouse) (UniProt Q8BH44).
T1 sequence: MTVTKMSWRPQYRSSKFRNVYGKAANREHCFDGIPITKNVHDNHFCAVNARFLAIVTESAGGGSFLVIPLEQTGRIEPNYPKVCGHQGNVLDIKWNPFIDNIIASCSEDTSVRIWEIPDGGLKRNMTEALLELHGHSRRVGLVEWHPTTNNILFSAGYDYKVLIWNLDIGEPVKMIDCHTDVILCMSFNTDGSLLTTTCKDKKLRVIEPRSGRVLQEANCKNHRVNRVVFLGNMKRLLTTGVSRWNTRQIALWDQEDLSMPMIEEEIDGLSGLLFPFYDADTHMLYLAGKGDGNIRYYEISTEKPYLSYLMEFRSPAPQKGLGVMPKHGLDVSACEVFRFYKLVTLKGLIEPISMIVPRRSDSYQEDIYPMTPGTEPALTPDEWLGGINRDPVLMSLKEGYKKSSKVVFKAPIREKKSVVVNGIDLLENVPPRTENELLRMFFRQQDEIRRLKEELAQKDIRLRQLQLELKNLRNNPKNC
In words: co-IP; HEK293T cells transfected with the indicated constructs, 24 h; lysis in 1% Triton X-100 buffer (50 mM NaCl, 50 mM NaF, 15 mM Na4P2O7, 1 mM EDTA, pH 7.4); anti-V5 antibody 12 h at 4 °C, protein G-Sepharose beads, 5 washes; western blot. On the technique in general: Immunoblotting shows a protein as a band on a membrane.

These are yes or no findings as the source states them, for the method shown. In cells and extracts the contact can be indirect. Some binding calls cover weakened binding; strength is not graded here. Tags and fused reporters may be left off the sequences shown.

As for CFL1 (from UniProt P18760 1-166), the binding entry is “binds”.
For PAXILLIN (from UniProt P49023 1-591), the binding entry is “no binding”.
